Data published in US20110135662A1 (UCB, published 2011).
Numbering of substitutions follows the chain as printed. Results are given in words; binding and its absence hold for the method and conditions named. Some results given as binding are weak or reduced against the parent protein; the word gives no strength.

Tests used:
[1] = molecular target: T1, B11 human (Nav 1.7) PMTEEFKN (human); assay: peptide binding ELISA (FIG. 3I legend)
T1 sequence (peptide, biotinylated for the ELISA (p-0360); exact form not printed): PMTEEFKN

[2] = molecular target: T2, B11 mouse (Nav 1.7) PMTDEFKN (mouse); assay: peptide binding ELISA (FIG. 3I legend)
T2 sequence (peptide, biotinylated for the ELISA (p-0360); exact form not printed): PMTDEFKN

[3] = molecular target: T1, B11 human (Nav 1.7) PMTEEFKN (human); assay: peptide binding ELISA, biotinylated peptide on streptavidin
[4] = molecular target: T2, B11 mouse (Nav 1.7) PMTDEFKN (mouse); assay: as above

Measured: binding

B1: CA167_00983 (antibody, rabbit IgG1, V domains shown)
VH: QSVEESGGRLVTPGTPLTLTCTVSGFSLSNYAMSWVRQAPGKGLEWIGIIGKSGSTAYASWAKGRFTISRTSTTVDLEITSPTTEDTATYFCVRFVLLWGPGTLVTVS
VL: AQVLTQTASPVSAAVGGTVTINCQSSQSVYKNNDLAWYQQKPGQPPKLLIYYASTLASGVSSRFKGSGSGTEFTLTISDAQCDDAATYYCLGSYDCSSADCNAFGGGTKVVVK
notes: Rabbit monoclonal from rabbit 3824
binds: all assays above

B2: CA167_01080 (antibody, rabbit IgG1, V domains shown)
VH: QSLEESGGRLVTPETPLTLTCTASGIDLSKWPMTWVRQAPGKGLEWIGIIGRSGSTNYASWAKGRFTISKTSTTVDLKMTSPTTEDTATYFCARGGSYYDLWGQGTLVTVS
VL: B1 VL with G17N, N22T, Y30W, A36S, P42L, G66A, E72Q, A80V, A86G, L91V
notes: as for B1
binds: all assays above
